Test results published in US11572384B2, “Unusual substrates of tubulin tyrosine ligase” (FORSCHUNGSVERBUND BERLIN E.V., priority 2016, dated 2023).
Some of these results come from one statement about several compounds together. Some compounds share one range, which may span the group rather than tell each member.

Target: T1, TTL (Canis lupus familiaris, UniProt A0A8I3N5B1)
T1 construct: His-Tag (N, cleaved yes); Sumo (N, cleaved yes); made in house; host or cells: E. coli BL21 (DE3)
T1 sequence (A0A8I3N5B1 1-377): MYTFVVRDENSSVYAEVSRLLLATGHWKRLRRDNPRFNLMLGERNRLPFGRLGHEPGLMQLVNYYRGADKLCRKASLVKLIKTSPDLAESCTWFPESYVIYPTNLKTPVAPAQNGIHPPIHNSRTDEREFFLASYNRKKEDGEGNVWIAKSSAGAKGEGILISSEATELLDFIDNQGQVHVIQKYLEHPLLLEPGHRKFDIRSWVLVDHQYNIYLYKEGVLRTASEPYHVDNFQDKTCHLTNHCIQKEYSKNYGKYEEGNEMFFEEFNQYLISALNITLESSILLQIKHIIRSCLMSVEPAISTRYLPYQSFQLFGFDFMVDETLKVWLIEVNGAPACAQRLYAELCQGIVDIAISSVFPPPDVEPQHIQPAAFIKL
Assay: Determination of TTL activity using carboxyfluorescein-peptide (18)
Format: biochemical
Settings: 1 mM substrate, 0.2 mM peptide 18, 1 μM TTL, 37° C., five hours of incubation; UPLC-MS / HPLC peak area

N[C@@H](Cc1c[nH]cn1)C(=O)O [histidine]
yields of ligation to peptide 18 by TTL: 3-75%
